# For at least one compound, name, drawing or mass did not settle the structure.
# Target: T1, Or83b (Drosophila melanogaster, UniProt Q9VNB5)
# T1 sequence (Q9VNB5 1-486): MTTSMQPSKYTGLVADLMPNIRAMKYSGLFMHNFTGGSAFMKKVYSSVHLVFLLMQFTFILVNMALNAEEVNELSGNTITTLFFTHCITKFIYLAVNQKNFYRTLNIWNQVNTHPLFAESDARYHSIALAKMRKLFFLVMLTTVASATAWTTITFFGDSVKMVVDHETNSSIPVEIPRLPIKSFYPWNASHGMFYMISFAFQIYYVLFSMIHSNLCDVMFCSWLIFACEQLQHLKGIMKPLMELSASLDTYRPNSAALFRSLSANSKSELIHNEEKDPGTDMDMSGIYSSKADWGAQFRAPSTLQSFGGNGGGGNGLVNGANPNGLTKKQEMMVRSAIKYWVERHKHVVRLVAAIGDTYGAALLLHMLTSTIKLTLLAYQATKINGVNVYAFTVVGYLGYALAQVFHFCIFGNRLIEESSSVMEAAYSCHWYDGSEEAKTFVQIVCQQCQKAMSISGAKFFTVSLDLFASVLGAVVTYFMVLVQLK
# Assay: Whole-cell patch-clamp of HEK293 cells expressing Or83b alone
# Assay type: cell-based
# Design: expressed in transfected cells; host or cells: HEK293
# Details: 50 µM forskolin; -100 mV (Fig. 6a)
# Procedure: In some experiments we transfected cells with pcDNA3-DOR22a-GFP or pcDNA3-DOR83b-GFP alone. We also examined the properties of DOR47a, which was cloned, using standard molecular biology methods into a pcDNA3.1(-) expression vector. To test for putative G-protein coupling, cells were transfected with the respective OR-DNA together with 1.5 µg hHCN2/pcDNA3 (provided by M. Biel, Munich, Germany), with 1 µg hKCNQ4/pcDNA3.1 or with 1 µg hCNGA2/pCMV6-XL4 (Origene, Rockville, MD, USA).
# In brief, ion currents in HEK293 cells were measured at room temperature using whole-cell patch-clamp with appropriate compensation of series resistance and of capacitive currents. Additional experiments were performed in the outside-out configuration. Current measurements and data acquisition were performed using an EPC9 patch-clamp amplifier controlled by PatchMaster software (both HEKA Elektronik, Lambrecht, Germany). Patch-clamp pipettes were fabricated from borosilicate capillaries. Pipettes for whole-cell recordings had resistances of 2-4 MΩ for excised-patch recordings the pipette resistance was up to 15 MΩ.
# To differentiate between ionotropic and metabotropic pathways of receptor activation (Fig. 2a-d) the pipette solution contained either 2 mM ATP plus 2 mM GTP or 2 mM ADP plus 2 mM GDP (both for whole-cell and outside-out configuration). […]
structure (smiles),measurement,value
C=C[C@@]1(C)CC(=O)[C@]2(O)[C@@]3(C)[C@@H](O)CCC(C)(C)[C@@H]3[C@H](O)[C@H](OC(C)=O)[C@@]2(C)O1 [forskolin],current response relative to 8-bromo-cAMP,twice the size as obtained with 8-bromo-cAMP

# Source: patent EP2108954A1, “A test system for detecting intracellular cyclic nucleotide level and methods and uses thereof” (Max-Planck-Gesellschaft zur Förderung der Wissenschaften …, priority 2008, dated 2009)
